Reference: the supplement of paper PMC4604168 (melanoma cell lines)
Some of the results follow. Many values rest on one well or one pass, so single values are uncertain.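 The apoptosis fraction was the count of cleaved-PARP antibody-stained nuclei relative to all DNA-stained nuclei, imaged in 1,536-well plates. Screening doses were set so most cells survived, and baseline and induced cleaved-PARP levels vary greatly across cell lines.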

test system: WM115; assay: cleaved PARP positive nuclei fraction relative to DMSO control; melanoma cells; higher = more apoptosis; conditions: library dose: low library concentration; 72 h

First: O=c1[nH]nc(Sc2ncc([N+](=O)[O-])s2)n1-c1ccc2c(c1)OCCO2 + Cn1cnc2c(F)c(Nc3ccc(Br)cc3Cl)c(C(=O)NOCCO)cc21 [selumetinib] (first compound 0.2 µM, partner dose 0.015 µM)
Second: Cc1cc(Nc2cc(N3CCN(C)CC3)nc(Sc3ccc(NC(=O)C4CC4)cc3)n2)n[nH]1 [Tozasertib] + C[C@@H](Oc1cc(-c2cnn(C3CCNCC3)c2)cnc1N)c1c(Cl)ccc(F)c1Cl [Crizotinib] (first compound 0.006 µM, partner dose 0.2 µM)
The “cleaved PARP positive nuclei fraction” value of the first is lower: 48.2% for the first, 211% for the second.

Going from `CC[C@]1(O)C[C@H]2CN(CCc3c([nH]c4ccccc34)[C@@](C(=O)OC)(c3cc4c(cc3OC)N(C=O)[C@H]3[C@@](O)(C(=O)OC)[C@H](OC(C)=O)[C@]5(CC)C=CCN6CC[C@]43[C@@H]65)C2)C1` [vincristine] + CS(=O)(=O)c1ccc(C(=O)Nc2ccc(Cl)c(-c3ccccn3)c2)c(Cl)c1 [vismodegib] (first compound 0.0001 µM, partner dose 1 µM) to `O=C(/C=C/c1cccnc1)NCCCCC1CCN(C(=O)c2ccccc2)CC1` + Cn1c(=O)n(-c2ccc(C(C)(C)C#N)cc2)c2c3cc(-c4cnc5ccccc5c4)ccc3ncc21 [NVP-BEZ235] (first compound 0.01 µM, partner dose 0.004 µM), the “cleaved PARP positive nuclei fraction” value falls from 1530% to 69.5%.

Compared with `O=c1[nH]nc(Sc2ncc([N+](=O)[O-])s2)n1-c1ccc2c(c1)OCCO2` + Nc1ccn([C@@H]2O[C@H](CO)[C@@H](O)C2(F)F)c(=O)n1 [gemcitabine] (first compound 0.2 µM, partner dose 0.0004 µM), `Cc1ccc(Nc2nccc(N(C)c3ccc4c(C)n(C)nc4c3)n2)cc1S(N)(=O)=O` [Pazopanib] + CC(=O)c1c(C)c2cnc(Nc3ccc(N4CCNCC4)cn3)nc2n(C2CCCC2)c1=O [palbociclib] (first compound 0.4 µM, partner dose 0.04 µM) is lower in “cleaved PARP positive nuclei fraction” value: 186% for the first, 145% for the second.

Going from `CCCCCCCCCCCCCCCCCCOP(=O)([O-])OC1CC[N+](C)(C)CC1` [Perifosine] + Cc1cc(Nc2cc(N3CCN(C)CC3)nc(/C=C/c3ccccc3)n2)n[nH]1 [ENMD2076] (first compound 0.4 µM, partner dose 0.04 µM) to `O=C(/C=C/c1cccnc1)NCCCCC1CCN(C(=O)c2ccccc2)CC1` + Cc1cn(-c2cc(NC(=O)c3ccc(C)c(Nc4nccc(-c5cccnc5)n4)c3)cc(C(F)(F)F)c2)cn1 [nilotinib] (first compound 0.01 µM, partner dose 0.2 µM), the “cleaved PARP positive nuclei fraction” value falls from 140% to 95%.

First: O=C(Nc1cc(C(F)(F)F)cc(C(F)(F)F)c1)c1cc(Cl)ccc1O + Cn1cnc2c(F)c(Nc3ccc(Br)cc3Cl)c(C(=O)NOCCO)cc21 [selumetinib] (first compound 0.016 µM, partner dose 0.015 µM)
Second: Cc1cn(-c2cc(NC(=O)c3ccc(C)c(Nc4nccc(-c5cccnc5)n4)c3)cc(C(F)(F)F)c2)cn1 [nilotinib] + CC(=O)O[C@@]12CO[C@@H]1C[C@H](O)[C@@]1(C)C(=O)[C@H](O)C3=C(C)[C@@H](OC(=O)[C@H](O)[C@@H](NC(=O)OC(C)(C)C)c4ccccc4)C[C@@](O)([C@@H](OC(=O)c4ccccc4)[C@H]21)C3(C)C [Docetaxel] (first compound 0.2 µM, partner dose 0.0001 µM)
The “cleaved PARP positive nuclei fraction” value of the first is lower: 66.7% for the first, 281% for the second.

First: CC[C@]1(O)C[C@H]2CN(CCc3c([nH]c4ccccc34)[C@@](C(=O)OC)(c3cc4c(cc3OC)N(C=O)[C@H]3[C@@](O)(C(=O)OC)[C@H](OC(C)=O)[C@]5(CC)C=CCN6CC[C@]43[C@@H]65)C2)C1 [vincristine] + C#Cc1cccc(Nc2ncnc3cc(OCCOC)c(OCCOC)cc23)c1 [erlotinib] (first compound 0.0001 µM, partner dose 0.8 µM)
Second: O=C(/C=C/c1cccnc1)NCCCCC1CCN(C(=O)c2ccccc2)CC1 + COCC[n+]1c2c(n(Cc3cnccn3)c1C)C(=O)c1ccccc1C2=O [YM155] (first compound 0.01 µM, partner dose 0.0004 µM)
The “cleaved PARP positive nuclei fraction” value of the first is higher: 1850% for the first, 108% for the second.

Compared with `N#CC[C@H](C1CCCC1)n1cc(-c2ncnc3[nH]ccc23)cn1` [ruxolitinib] + O=C(O)[C@@H]1[O][Sb](=[O])([O][Sb]2(=[O])[O][C@H]([C@H](O)CO)[C@H](O)[C@H](C(=O)O)[O]2)[O][C@H]([C@H](O)CO)[C@@H]1O [stibogluconate] (first compound 1 µM, partner dose 2 µM), `O=c1[nH]nc(Sc2ncc([N+](=O)[O-])s2)n1-c1ccc2c(c1)OCCO2` + CCCCCCCCc1ccc(CCC(N)(CO)CO)cc1 [fingolimod] (first compound 0.2 µM, partner dose 2 µM) is lower in “cleaved PARP positive nuclei fraction” value: 114% for the first, 62.9% for the second.

First: COc1cc([C@@H]2c3cc4c(cc3[C@@H](O[C@@H]3O[C@@H]5CO[C@@H](C)O[C@H]5[C@H](O)[C@H]3O)[C@H]3COC(=O)[C@H]23)OCO4)cc(OC)c1O [etoposide] + Cc1nc(Nc2ncc(C(=O)Nc3c(C)cccc3Cl)s2)cc(N2CCN(CCO)CC2)n1 [dasatanib] (first compound 0.02 µM, partner dose 0.004 µM)
Second: CC[C@]1(O)C[C@H]2CN(CCc3c([nH]c4ccccc34)[C@@](C(=O)OC)(c3cc4c(cc3OC)N(C=O)[C@H]3[C@@](O)(C(=O)OC)[C@H](OC(C)=O)[C@]5(CC)C=CCN6CC[C@]43[C@@H]65)C2)C1 [vincristine] + Cc1ccc(Nc2nccc(N(C)c3ccc4c(C)n(C)nc4c3)n2)cc1S(N)(=O)=O [Pazopanib] (first compound 0.0001 µM, partner dose 0.4 µM)
The “cleaved PARP positive nuclei fraction” value of the first is lower: 158% for the first, 788% for the second.

Going from `COc1cc([C@@H]2c3cc4c(cc3[C@@H](O[C@@H]3O[C@@H]5CO[C@@H](C)O[C@H]5[C@H](O)[C@H]3O)[C@H]3COC(=O)[C@H]23)OCO4)cc(OC)c1O` [etoposide] + O=c1[nH]nc(Sc2ncc([N+](=O)[O-])s2)n1-c1ccc2c(c1)OCCO2 [BI78D3] (first compound 0.02 µM, partner dose 0.2 µM) to `O=C(Nc1cc(C(F)(F)F)cc(C(F)(F)F)c1)c1cc(Cl)ccc1O` + COCC[n+]1c2c(n(Cc3cnccn3)c1C)C(=O)c1ccccc1C2=O [YM155] (first compound 0.016 µM, partner dose 0.0004 µM), the “cleaved PARP positive nuclei fraction” value falls from 185% to 51.6%.
